Data as given in PubChem BioAssay AID1224830 (NIAID, 2016)
The deposit covers about 18,000 reagents; below is a random part of them. About 2,900 of all reagents (16%) count as active. 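Calls are made per well; low scores hint the gene aids the LPS response, high scores that it dampens it.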 Repeated entries: four replicate wells of each siRNA pool.

Screen: 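Regulators of TLR4 signalling towards TNF-alpha in macrophage-like cells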 (primary screen)
Cell system: human THP-1 monocytic leukaemia cells, TNF dual-luciferase reporter clone, PMA-differentiated to macrophage-like cells
Knock-down reagent: siRNA pool against human genes, 50 nM
Timing: LPS for 4 h, given about 3 days after siRNA transfection
Conditions: bacterial LPS (TLR4 ligand), 10 ng/ml
Measured: 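TNF firefly reporter luminescence divided by renilla, normalised to the plate median, then turned into a robust z-score for each replicate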
Direction: TNF reporter robust z-score: higher = stronger TNF reporter response to LPS
Call rule: 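a well is active when its z-score exceeds 2.8 or falls below -1.5; control wells carry no call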

SOX7 (GeneID 83595) — TNF reporter robust z-score = 0.7; Call = inactive
SOX7 (GeneID 83595) — TNF reporter robust z-score = 0.69; Call = inactive
SOX7 (GeneID 83595) — TNF reporter robust z-score = -0.24; Call = inactive
SOX7 (GeneID 83595) — TNF reporter robust z-score = 1.2; Call = inactive
KANK4 (GeneID 163782) — TNF reporter robust z-score = -0.7; Call = inactive
KANK4 (GeneID 163782) — TNF reporter robust z-score = -0.59; Call = inactive
KANK4 (GeneID 163782) — TNF reporter robust z-score = -0.48; Call = inactive
KANK4 (GeneID 163782) — TNF reporter robust z-score = -1.21; Call = inactive

Next part; the last 2 above are carried over.
KANK4 (GeneID 163782) — TNF reporter robust z-score = -0.48; Call = inactive
KANK4 (GeneID 163782) — TNF reporter robust z-score = -1.21; Call = inactive
SEH1L (GeneID 81929) — TNF reporter robust z-score = -1.04; Call = inactive
SEH1L (GeneID 81929) — TNF reporter robust z-score = -0.86; Call = inactive
SEH1L (GeneID 81929) — TNF reporter robust z-score = -1.02; Call = inactive
NUDC (GeneID 10726) — TNF reporter robust z-score = 0.29; Call = inactive
NUDC (GeneID 10726) — TNF reporter robust z-score = -0.16; Call = inactive
NUDC (GeneID 10726) — TNF reporter robust z-score = -0.08; Call = inactive
NUDC (GeneID 10726) — TNF reporter robust z-score = -0.1; Call = inactive
GABRB3 (GeneID 2562) — TNF reporter robust z-score = -1.09; Call = inactive
GABRB3 (GeneID 2562) — TNF reporter robust z-score = -0.87; Call = inactive
GABRB3 (GeneID 2562) — TNF reporter robust z-score = -0.99; Call = inactive
GABRB3 (GeneID 2562) — TNF reporter robust z-score = -0.6; Call = inactive
